We go through 1 molecule from patent US20260091080A1.

Results are given in words; binding and its absence hold for the method and conditions named. In cells and extracts the contact can be indirect. Some binding calls cover weakened binding; strength is not graded here. Tags and fused reporters may be left off the sequences shown.

The target in experiment [1] is TDP-43 wild type (non-mutant), C-terminal V5 tag (pcDNA3.1/V5) (human) (UniProt Q13148). The experiment in a line: co-immunoprecipitation after co-expression.
The target is the same in experiment [2]. Kind of experiment: co-precipitation with expressed Fx.

For GDDRKQTIDNSQGAYQEAFDISKKEMQPTH (peptide, not shown: small tags and cut ends) [14-3-3θ-Fx-V5 (α-helix 6 (αF) of 14-3-3θ alone)], the binding entry in experiment [1] and in experiment [2] was “binds” in each case.
